Drawing on PubChem BioAssay AID1508600 (Functional Genomics Laboratory (NCATS/FGL), 2020), this text covers z-score for 107 sequences.

Screen size: about 53,000 sequences; about 3,700 (7%) were called active.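 How the source made its calls: active means gene knockdowns whose robust z-score for IL-1 alpha signal is at least 2 or at most -2, so actives lie on both sides; inactive means the rest.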 The list shows a part of the results.

The nature of the experiment: Components of the Cytosolic LPS Sensing Pathway: Gene Identification via Genome-wide siRNA Screen.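 Further: robust z of the log signal after scaling to non-targeting control siRNA wells of the plate.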 The note with it: RAW264.7 macrophages, IL-1a HTRF, actives lie on both sides, screened at 100 nM (by protocol), cells primed 5 h with Pam3CSK4 first. The method, boiled down:
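Mouse macrophage line RAW264.7 is transfected with siRNA (100 nM final), grown 48h, primed with TLR ligand Pam3CSK4 5 h and given intracellular LipidA 24 h. IL-1a in supernatant is read by HTRF and viability by luminescence.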
(In TR-FRET formats the signal depends on donor and acceptor labels being close together.)
For the sequence GGUUAUUCAUGUGGAAAAGTT against Obp2a, the z-score was inactive: -0.918. Turning to GGAGGCUGAGUAUUGGCUUTT against Pi4k2b, the z-score was inactive: -1.06. As to GCCAACAGUACUUUGUUAATT against Chordc1, the z-score was inactive: 0.589. For GGUUAAAAAGAUCCCUUGUTT against Zfp507, the z-score was inactive: -0.11. With GGCCUUGAUUCAAUUCAACTT against Tgm6, the z-score was inactive: 0.812. On to GGCUUGUGGUCAUCUCAUGTT against Olfr282, for which the z-score is inactive: 0.208.

GGACUAUUCACACUAAGUCTT against Them5: the z-score was inactive: -0.214.

On to GGUCCAGAAUCAGAGGAGUTT against Trim10, for which the z-score was inactive: 1.12. GGAGUUGGAGAAUGACACGTT against Ift88: the z-score was inactive: 1.14. As for GGACAUGGACAUCCUGAACTT against Slc29a3, the z-score is inactive: -1. On to GGAUGCACUGAGGAACUCATT against Atg101, for which the z-score was inactive: -0.573. GGGUAUAUUUGGAACUACGTT against Ppa1: the z-score was inactive: -1.2. In the case of CCUCGAUGGUAAUAAAUGUTT against Agtrap, the z-score is inactive: -1.16.

Take GUAUUUUACACUCUUGUGGTT against Olfr898: the z-score is active: -2.31.

As to GGUGCCUCAGAGUAAAUAUTT against Cdk2ap1, the z-score was inactive: -0.895. For the sequence GGAUACAGCAGUACAAAUGTT against Ces2c, the z-score was inactive: -0.135.

GGCAAACACUACGGCAUCATT against Mrpl27: the z-score was inactive: 0.159.

GGUAUCAGUACUUUUUGCATT against Ptpn4: the z-score is inactive: 1.7. Consider GCCUCUCAACUUAAUAACATT against Zup1, for which the z-score was inactive: -0.697.

Consider CGUUGCUUCUCCAUUGAGCTT against Cdh24, for which the z-score is inactive: -0.669. As for GGAAGUGGCCCUUAAAAGGTT against Osbpl3, the figure is inactive: 0.522. As to GGAAAAUUACAGAAUUGGATT against Dnali1, the z-score was inactive: 0.323.

Consider CCUGCUAGUGGAGAACAUCTT against Trim54, for which the z-score is inactive: 0.147. Turning to GGAGAAUCUGGACAAUGACTT against Dvl3, the z-score is inactive: -1.48. Regarding GGUGGAAGUCUUCAGACAGTT against Eif6, the z-score is inactive: 0.775. As for GCUGGUACGCCCACCAUAUTT against Foxi1, the z-score was inactive: 0.331. As to GGGACCAUCUUCCUGAUUGTT against Cdh22, the z-score was inactive: -0.222.

On to GCUAUGCUUUUUUGCUACUTT against Olfr972, for which the z-score was inactive: 0.773. Turning to CCAGCAGCCUAAAAGCAGUTT against Ppard, the z-score was inactive: -1.69. As to CGAGAACCAUAUCUCACUUTT against Ptpn2, the z-score was inactive: -0.485.

GGCUCUGAAGACUGUGAUCTT against Tmed3: the z-score was inactive: 0.359.

On to CCCAACUGUCAAAUAAUCCTT against Eddm3b, for which the z-score is inactive: 0.0505. On to GGCAUUUAUUAUCAGGCUGTT against Pes1, for which the z-score was inactive: 0.665. For the sequence GCAGAGAGAUACAUUAAAGTT against Adam10, the z-score is inactive: 1.16. On to GGGUCUCUGGCUUCAUUUUTT against Socs1, for which the z-score is inactive: -0.494. As for GGAGAAGGGCUUUUCUGUUTT against Gbp5, the figure is inactive: -0.729; as for GCAAGAAGAGGUGUGCGUCTT against Inf2, inactive: 1.25; as for GGAACUUCACAGGAACUCUTT against Nol4, inactive: -0.227. Consider GGCAGUGAAUUCAACCGCATT against Gtf2f1, for which the z-score is inactive: 0.378. As to CGUGCCCAAGAAUGCCCUUTT against Actr5, the z-score was inactive: 0.595. With GCAAAAAACAGGGUAACUCTT against Cacna1d, the z-score was inactive: 0.44. GGGUCUCGAAGAGAUCAAUTT against Plcxd3: the z-score is inactive: 1.39.

Take GCUCAACAGAUCAUGCCACTT against Tapbpl: the z-score was inactive: 0.496.

With GGUUCAUGUGUGCACAGCUTT against Ehd1, the z-score is inactive: -1.39.

Take CCAACACAUGUGGAGAGUUTT against Dars2: the z-score is inactive: 0.729. Consider GGCCUGCCUGAAAAAAAAATT against Map1lc3a, for which the z-score was inactive: 0.683. Turning to CCUAAGGCAAUCCCUAUUGTT against Gprasp1, the z-score was inactive: -0.424. As for CCAUACCUAAAUCUGCAUUTT against Celf5, the figure is inactive: 0.515. GGAAAGUGUUUUCUCAUGATT against Klf9: the z-score was inactive: -0.23. CCGUAUCCAUUCUGAACGUTT against Zbtb8a: the z-score is inactive: 0.799. For the sequence GCUCAUGAGUAGCUUAGUUTT against Mtch2, the z-score is inactive: 0.56. As for GGUGAAAAACCCUAUAGUUTT against Zfp595, the figure is inactive: -1.44.

Consider GGAUACCAUGGUCGUCUGATT against Gpatch2l, for which the z-score is inactive: -0.277. Consider GGGCAUUGAAGCAAAUAUATT against Tmprss15, for which the z-score was inactive: 0.323.

In the case of GGAUUGAAAGCUACUCGUGTT against Maf1, the z-score is inactive: 0.533. As for CCUCUACACUUUAGAUGGUTT against Rack1, the z-score was inactive: -0.0311.

Regarding GGCCUACAGGACAAAGUUUTT against Comt, the z-score was inactive: 0.394. In the case of CCUAUAAAGCUCUAAAGGATT against Caprin1, the z-score is inactive: 0.115. In the case of CGGCACCUACUUCAUCUAUTT against Eda, the z-score was inactive: 0.0252. As for GGAAACCAGUUGCUUAAGUTT against Erich2, the figure is inactive: -0.692; as for CCUAAAUCCUCUAUUUUGGTT against Fmn2, inactive: -1.1; as for GCCUAAGUUUGACUUAUAATT against Parp12, inactive: -0.0522. Consider CGAGCUUGCUAUCGGGAAGTT against Defb7, for which the z-score was inactive: -0.902. With GGCAAAGGCUAUCGCUCACTT against Smpd2, the z-score was inactive: -1.46. As for GCAUAUUGUGAUAUCAGUGTT against Siglecf, the figure is inactive: 0.77; as for UCUUAUGCCUUGGUGCUCATT against Olfr746, inactive: -1.61. As to GGAUCAGCCCAUCUACUUGTT against Nenf, the z-score was inactive: 0.0601. With CCUGAUCAAGGUGAAACGGTT against Btnl2, the z-score is inactive: -0.247. As to CCUGCUCAUUGCAGUGACGTT against Olfr1243, the z-score was inactive: -1.09. As for GCCUUUCAAGAUUUGUGGGTT against Mreg, the figure is inactive: -1.4; as for GGCCAAACAAGACAUUCAGTT against Slmap, inactive: 1.33; as for GGGACCAGAAUAUGACUGGTT against Ppm1j, inactive: 0.282.

For GGCAGAAGUGGAAAAACAATT against Tmco1, the z-score was inactive: -0.417. For the sequence GGAAUAUCACUUCCAUACATT against Ntrk3, the z-score is inactive: 0.587. With GCUCCUUUAGCAUCUUAAUTT against Ccdc28a, the z-score is inactive: 2. As for GGAAGGAUCCCAAAUUCAGTT against Pebp1, the figure is inactive: 1.91; as for CCAGAAAACCAAACAACAGTT against Olfr1357, inactive: 0.287; as for GGCCCUAGCAGAUGAAAAATT against Ubl4a, inactive: -0.235. In the case of GGAGAACAACAGUAAUUACTT against Reps2, the z-score was inactive: -1.28. For GGAAAGAGUAAUAAUUGUCTT against Cyp1b1, the z-score was inactive: -1.57. Turning to GGGUCAUCCAAACGCACAGTT against Uvrag, the z-score is inactive: 0.609. Turning to GGAAUUCUAUGGUCUAACGTT against Usp46, the z-score is inactive: -0.867.

Regarding GGCUAUGAGGACUAUCUGUTT against Dmbt1, the z-score is inactive: -0.409. For the sequence CGUGCUCAUAAUUUUGAACTT against Gcc2, the z-score is inactive: 0.178. Consider GGGACCAAUGUUCCAGGAATT against Ms4a4b, for which the z-score is inactive: -0.233. Consider GGCAUUCAGAGCUGAUUCATT against Mia3, for which the z-score is inactive: 0.93.

On to GGCUAAAGUUGACAGCCAATT against Cd52, for which the z-score is inactive: 0.0939. CCGAGUAAUUGGAAGUGGUTT against Ldha: the z-score was active: 2.08.

For the sequence CCAGCUAAACUCUGUAAAATT against Zfp639, the z-score was inactive: -0.113. CGUCCUCAGGCAAAUGACUTT against Snx21: the z-score is inactive: -0.75.

As for GGUUCUGGGACUUAACAAATT against Rgs12, the z-score was inactive: 0.793.

As to GGUAUAGUAGUGGAAGAUUTT against Uso1, the z-score is inactive: 0.341.

Regarding GCCUUGGUAUGUUUCUAUUTT against Slc38a11, the z-score was inactive: 0.974. As to GGUUCAGCUGGUCCUAUCUTT against Olfr1099, the z-score is active: -2.07.

As for GGUCCUUCACAGUUAUGUGTT against Nsun4, the z-score was inactive: 0.104. Turning to GGGAAAGAUAAUGGCCUGCTT against Tnfrsf23, the z-score was inactive: 0.0994.

GCAUUUGUAGUUAUUUCACTT against C1d: the z-score was inactive: -0.732. Take GGUUCUCACCACUGUAGACTT against Slc7a14: the z-score is inactive: -0.576.

Regarding CCCUGGGUGUACAAGUCCUTT against Slc25a41, the z-score was inactive: -0.084. As for GGCUAAUGAACCACUUUUUTT against Elobl, the figure is inactive: -0.49; as for GCUGUGAUCAGGACGAGAATT against Stx2, inactive: 0.187. As for CGAUUCCAUUCUUAACAUATT against Crlf3, the z-score is inactive: -0.353. As for GCUGGAUCACCGUUAUAAUTT against Wdr17, the figure is inactive: -0.429.

In the case of GGGUACCCUAGCUCUGUUATT against Timp2, the z-score was inactive: -1.35. As for GGGAUUUGGUCAGCUAACCTT against Acp2, the figure is inactive: -1.06.

Regarding GGAGAAAUAUGACAUGGAGTT against Tnni2, the z-score was inactive: 0.432. For GGGUAACAGUGGUGAACCUTT against Col1a1, the z-score was active: 2.08.
